Patent publication US9145346B1, “Process for 2,2,4,4-tetramethylcyclobutane-1,3-diol crystallization” (Eastman Chemical Company, priority 2014, dated 2015)
The source gives many values for each of these; only a part stands here.

Assay: Solubility (saturated concentration) of cis-TMCD and trans-TMCD in various solvents, by gas chromatography
Type: physicochemical
Method: All concentrations were measured by gas chromatography. Water concentration was measured by Karl Fischer titrations.
The solubility of cis-TMCD and trans-TMCD in various solvents was determined by charging cis-TMCD, trans-TMCD, and the solvent or solvents of interest into a 120 ml jacketed glass vessel. The vessel was equipped with a stir bar in order to provide mixing and the jacket was used to control the temperature of the vessel contents. The vessel was equipped with charging and sampling ports on top of the vessel.
The slurry was allowed to stand for a time sufficient for the solids to saturate the solvent at the desired temperature. At that time, a sample of the solution was withdrawn from the cell using a fritted pipette so as to remove only the liquid phase. The sample was analyzed for cis-TMCD and trans-TMCD isomer content. These values represent the saturated concentration of each isomer at the sampling temperature.
After this, the cell contents were heated to the next desired temperature and the contents were held for another time interval sufficient to allow the slurry to equilibrate. A sample was then taken of the solution and analyzed. Following this procedure, solubility data was collected up to the final desired temperature.
The reported solubility of each isomer at a given temperature for a given solvent is expressed as a weight % relative to the saturated concentration of the isomer at the highest temperature reported for a given solvent.

[1] = Acetone, 6.2° C., relative to 54.7° C.
[2] = Acetone, 16.3° C., relative to 54.7° C.
[3] = Acetone, 25.7° C., relative to 54.7° C.
[4] = Acetone, 40.5° C., relative to 54.7° C.
[5] = Acetone, 54.7° C., relative to 54.7° C.
[6] = Benzene, 5.6° C., relative to 70.1° C.
[7] = Benzene, 12.7° C., relative to 70.1° C.
[8] = Benzene, 21.2° C., relative to 70.1° C.
[9] = Benzene, 30.9° C., relative to 70.1° C.
[10] = Benzene, 40.5° C., relative to 70.1° C.
[11] = Benzene, 50.3° C., relative to 70.1° C.
[12] = Benzene, 61.4° C., relative to 70.1° C.
[13] = Benzene, 70.1° C., relative to 70.1° C.
[14] = CHDM, 59.5° C., relative to 106.9° C.
[15] = DIBK, 6.2° C., relative to 94.4° C.
[16] = DIBK, 13.3° C., relative to 94.4° C.
[17] = DIBK, 25.2° C., relative to 94.4° C.
[18] = DIBK, 35.1° C., relative to 94.4° C.
[19] = DIBK, 44.1° C., relative to 94.4° C.
[20] = DIBK, 61.7° C., relative to 94.4° C.
[21] = DIBK, 71.0° C., relative to 94.4° C.
[22] = DIBK, 93.9° C., relative to 94.4° C.
[23] = DIBK, 94.4° C., relative to 94.4° C.
[24] = Ethylene Glycol, 16.5° C., relative to 91.4° C.
[25] = Ethylene Glycol, 91.4° C., relative to 91.4° C.
[26] = MIBK, 15.8° C., relative to 80.5° C.
[27] = MIBK, 26.0° C., relative to 80.5° C.
[28] = MIBK, 35.5° C., relative to 80.5° C.
[29] = MIBK, 50.5° C., relative to 80.5° C.
[30] = MIBK, 61.3° C., relative to 80.5° C.
[31] = MIBK, 70.8° C., relative to 80.5° C.
[32] = MIBK, 80.5° C., relative to 80.5° C.
[33] = Toluene, 15.0° C., relative to 99.7° C.
[34] = Toluene, 26.2° C., relative to 99.7° C.
[35] = Toluene, 40.5° C., relative to 99.7° C.
[36] = Toluene, 54.9° C., relative to 99.7° C.
[37] = Toluene, 69.8° C., relative to 99.7° C.
[38] = Toluene, 80.2° C., relative to 99.7° C.
[39] = Toluene, 89.8° C., relative to 99.7° C.
[40] = Toluene, 99.7° C., relative to 99.7° C.
[41] = Water, 6.2° C., relative to 79.3° C.
[42] = Water, 16.3° C., relative to 79.3° C.
[43] = Water, 25.7° C., relative to 79.3° C.
[44] = Water, 40.5° C., relative to 79.3° C.
[45] = Water, 54.7° C., relative to 79.3° C.
[46] = Water, 70.1° C., relative to 79.3° C.
[47] = Water, 79.3° C., relative to 79.3° C.
[48] = Xylenes, 4.2° C., relative to 99.7° C.
[49] = Xylenes, 15.0° C., relative to 99.7° C.
[50] = Xylenes, 26.2° C., relative to 99.7° C.
[51] = Xylenes, 40.5° C., relative to 99.7° C.
[52] = Xylenes, 54.9° C., relative to 99.7° C.
[53] = Xylenes, 69.8° C., relative to 99.7° C.
[54] = Xylenes, 80.2° C., relative to 99.7° C.
[55] = Xylenes, 99.7° C., relative to 99.7° C.
[56] = Xylenes, −5.1° C., relative to 99.7° C.
[57] = n-Decane, 37.8° C., relative to 89.6° C.
[58] = n-Decane, 52.9° C., relative to 89.6° C.
[59] = n-Decane, 69.5° C., relative to 89.6° C.
[60] = n-Decane, 79.3° C., relative to 89.6° C.
[61] = n-Decane, 89.6° C., relative to 89.6° C.
[62] = n-Heptane, 23.0° C., relative to 69.9° C.
[63] = n-Heptane, 30.5° C., relative to 69.9° C.
[64] = n-Heptane, 40.4° C., relative to 69.9° C.
[65] = n-Heptane, 49.9° C., relative to 69.9° C.
[66] = n-Heptane, 60.6° C., relative to 69.9° C.
[67] = n-Heptane, 69.9° C., relative to 69.9° C.

CC1(C)[C@H](O)C(C)(C)[C@@H]1O [cis-TMCD, cis-2,2,4,4-tetramethylcyclobutane-1,3-diol]
Relative solubility [1]: 28% relative wt %
Relative solubility [2]: 37% relative wt %
Relative solubility [3]: 51% relative wt %
Relative solubility [4]: 73% relative wt %
Relative solubility [5]: 100% relative wt %
Relative solubility [6]: 3% relative wt %
Relative solubility [7]: 3% relative wt %
Relative solubility [8]: 6% relative wt %
Relative solubility [9]: 10% relative wt %
Relative solubility [10]: 18% relative wt %
Relative solubility [11]: 32% relative wt %
Relative solubility [12]: 60% relative wt %
Relative solubility [13]: 100% relative wt %
Relative solubility [14]: 12% relative wt %
Relative solubility [15]: 5% relative wt %
Relative solubility [16]: 6% relative wt %
Relative solubility [17]: 9% relative wt %
Relative solubility [18]: 12% relative wt %
Relative solubility [19]: 16% relative wt %
Relative solubility [20]: 30% relative wt %
Relative solubility [21]: 43% relative wt %
Relative solubility [22]: 97% relative wt %
Relative solubility [23]: 100% relative wt %
Relative solubility [24]: 15% relative wt %
Relative solubility [25]: 100% relative wt %
Relative solubility [26]: 17% relative wt %
Relative solubility [27]: 23% relative wt %
Relative solubility [28]: 30% relative wt %
Relative solubility [29]: 46% relative wt %
Relative solubility [30]: 59% relative wt %
Relative solubility [31]: 77% relative wt %
Relative solubility [32]: 100% relative wt %
Relative solubility [33]: 1% relative wt %
Relative solubility [34]: 2% relative wt %
Relative solubility [35]: 4% relative wt %
Relative solubility [36]: 8% relative wt %
Relative solubility [37]: 15% relative wt %
Relative solubility [38]: 26% relative wt %
Relative solubility [39]: 42% relative wt %
Relative solubility [40]: 100% relative wt %
Relative solubility [41]: 52% relative wt %
Relative solubility [42]: 55% relative wt %
Relative solubility [43]: 51% relative wt %
Relative solubility [44]: 50% relative wt %
Relative solubility [45]: 56% relative wt %
Relative solubility [46]: 79% relative wt %
Relative solubility [47]: 100% relative wt %
Relative solubility [48]: 0% relative wt %
Relative solubility [49]: 1% relative wt %
Relative solubility [50]: 1% relative wt %
Relative solubility [51]: 3% relative wt %
Relative solubility [52]: 7% relative wt %
Relative solubility [53]: 16% relative wt %
Relative solubility [54]: 26% relative wt %
Relative solubility [55]: 100% relative wt %
Relative solubility [56]: 1% relative wt %
Relative solubility [57]: 3% relative wt %
Relative solubility [58]: 10% relative wt %
Relative solubility [59]: 27% relative wt %
Relative solubility [60]: 53% relative wt %
Relative solubility [61]: 100% relative wt %
Relative solubility [62]: 3% relative wt %
Relative solubility [63]: 4% relative wt %
Relative solubility [64]: 13% relative wt %
Relative solubility [65]: 27% relative wt %
Relative solubility [66]: 54% relative wt %
Relative solubility [67]: 100% relative wt %

CC1(C)[C@H](O)C(C)(C)[C@H]1O [trans-TMCD, trans-2,2,4,4-tetramethylcyclobutane-1,3-diol]
Relative solubility [1]: 27% relative wt %
Relative solubility [2]: 36% relative wt %
Relative solubility [3]: 50% relative wt %
Relative solubility [4]: 72% relative wt %
Relative solubility [5]: 100% relative wt %
Relative solubility [6]: 3% relative wt %
Relative solubility [7]: 3% relative wt %
Relative solubility [8]: 6% relative wt %
Relative solubility [9]: 10% relative wt %
Relative solubility [10]: 17% relative wt %
Relative solubility [11]: 31% relative wt %
Relative solubility [12]: 60% relative wt %
Relative solubility [13]: 100% relative wt %
Relative solubility [14]: 45% relative wt %
Relative solubility [15]: 5% relative wt %
Relative solubility [16]: 7% relative wt %
Relative solubility [17]: 10% relative wt %
Relative solubility [18]: 13% relative wt %
Relative solubility [19]: 18% relative wt %
Relative solubility [20]: 29% relative wt %
Relative solubility [21]: 47% relative wt %
Relative solubility [22]: 95% relative wt %
Relative solubility [23]: 100% relative wt %
Relative solubility [24]: 14% relative wt %
Relative solubility [25]: 100% relative wt %
Relative solubility [26]: 21% relative wt %
Relative solubility [27]: 29% relative wt %
Relative solubility [28]: 38% relative wt %
Relative solubility [29]: 57% relative wt %
Relative solubility [30]: 69% relative wt %
Relative solubility [31]: 83% relative wt %
Relative solubility [32]: 100% relative wt %
Relative solubility [33]: 1% relative wt %
Relative solubility [34]: 2% relative wt %
Relative solubility [35]: 4% relative wt %
Relative solubility [36]: 8% relative wt %
Relative solubility [37]: 16% relative wt %
Relative solubility [38]: 26% relative wt %
Relative solubility [39]: 42% relative wt %
Relative solubility [40]: 100% relative wt %
Relative solubility [41]: 38% relative wt %
Relative solubility [42]: 38% relative wt %
Relative solubility [43]: 35% relative wt %
Relative solubility [44]: 39% relative wt %
Relative solubility [45]: 50% relative wt %
Relative solubility [46]: 73% relative wt %
Relative solubility [47]: 100% relative wt %
Relative solubility [48]: 0% relative wt %
Relative solubility [49]: 1% relative wt %
Relative solubility [50]: 2% relative wt %
Relative solubility [51]: 4% relative wt %
Relative solubility [52]: 8% relative wt %
Relative solubility [53]: 16% relative wt %
Relative solubility [54]: 27% relative wt %
Relative solubility [55]: 100% relative wt %
Relative solubility [56]: 0% relative wt %
Relative solubility [57]: 3% relative wt %
Relative solubility [58]: 9% relative wt %
Relative solubility [59]: 27% relative wt %
Relative solubility [60]: 52% relative wt %
Relative solubility [61]: 100% relative wt %
Relative solubility [62]: 3% relative wt %
Relative solubility [63]: 4% relative wt %
Relative solubility [64]: 14% relative wt %
Relative solubility [65]: 28% relative wt %
Relative solubility [66]: 53% relative wt %
Relative solubility [67]: 100% relative wt %
